{
  "sequences": {"note": "Amino acid sequences for entries named in this document (tags omitted).", "UniProt P35462, whole entry, looked up": "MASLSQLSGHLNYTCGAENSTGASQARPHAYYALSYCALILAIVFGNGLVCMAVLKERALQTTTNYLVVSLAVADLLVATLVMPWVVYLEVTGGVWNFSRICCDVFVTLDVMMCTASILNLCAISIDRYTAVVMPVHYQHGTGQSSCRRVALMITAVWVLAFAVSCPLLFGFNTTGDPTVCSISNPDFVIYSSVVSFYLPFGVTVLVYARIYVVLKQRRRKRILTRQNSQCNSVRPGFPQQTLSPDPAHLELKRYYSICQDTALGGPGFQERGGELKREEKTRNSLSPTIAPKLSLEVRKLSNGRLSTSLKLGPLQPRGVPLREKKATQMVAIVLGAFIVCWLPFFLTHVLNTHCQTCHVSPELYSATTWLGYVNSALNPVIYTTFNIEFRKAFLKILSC"},
  "source": "PubChem BioAssay AID652054",
  "about": "(National Center for Advancing Translational Sciences (NCATS), 2013)",
  "note": "The whole screen tested about 360,000 compounds, of which about 9,100 (2.5%) were called active. The shares of active, inactive and inconclusive entries below differ from those in the screen. Rule as the data show it: active = max response below about -50%; inconclusive = no clear call, values can overlap the other calls; inactive = above that. % is scaled to controls: 0 for no effect and ±100 for the full control effect.",
  "data": [
    {"target": "D(3) dopamine receptor (Homo sapiens) (UniProt P35462)", "assay": "qHTS of D3 Dopamine Receptor Antagonist: qHTS", "details": "D3R cells, DiscoveRx beta-arrestin luminescence, antagonist mode; hits give low values", "method_in_brief": "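Cells expressing the human receptor were seeded at 1500 cells/well, incubated overnight at 37 degrees C in 5% CO2, then exposed to library compounds with dopamine controls for 90 minutes at 37 degrees C before luminescent detection.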", "values": [
      {"smiles": "COC(=O)c1ccc(CN2CCCC(CO)(Cc3ccccc3F)C2)cc1", "note": "(configuration not stated)", "max response, negative = inhibition": "active: -88%"},
      {"smiles": "NC(=O)c1ccc(N=C2C(=O)Nc3ccc([N+](=O)[O-])cc32)cc1", "max response, negative = inhibition": "active: -62.4%"},
      {"smiles": "CC1CCN(CCNC(=O)C2CCCN(S(=O)(=O)c3cccc4nonc34)C2)CC1", "note": "(configuration not stated)", "max response, negative = inhibition": "inconclusive: -45.1%"},
      {"smiles": "C=CCc1ccc(OCCCCN2CCC(C)CC2)c(OC)c1", "max response, negative = inhibition": "active: -58.6%"},
      {"smiles": "CCCCN(CCCC)S(=O)(=O)c1ccc(C(=O)Nc2nnc(COC)o2)cc1", "max response, negative = inhibition": "active: -92.7%"},
      {"smiles": "O=c1ccc(NS(=O)(=O)c2ccc(Cl)cc2)cn1Cc1ccc(Cl)c(Cl)c1", "max response, negative = inhibition": "inconclusive: -35.2%"},
      {"smiles": "Cc1ccc(S(=O)(=O)NC(Cc2c[nH]c3ccccc23)C(=O)O)cc1", "note": "(configuration not stated)", "max response, negative = inhibition": "inactive: -6.95%"},
      {"smiles": "Cc1ccc(C)c(OCC(O)CN2CCC(CN3C(=O)c4cccc5cccc(c45)C3=O)CC2)c1", "note": "(configuration not stated)", "max response, negative = inhibition": "inconclusive: -34.3%"},
      {"smiles": "Cc1cc(C)c(S(=O)(=O)N/N=C/c2ccc3c(c2)OCO3)c(C)c1", "max response, negative = inhibition": "active: -71.2%"},
      {"smiles": "COc1ccc([C@H]2[C@H]3C=CC[C@@H](C)[C@@H]3C(=O)N2Cc2ccccc2)cc1Cl", "max response, negative = inhibition": "inconclusive: -39.7%"},
      {"smiles": "CCOc1ccccc1N1CCN(C(=O)c2ccc3[nH]c(C)c(C)c3c2)CC1", "max response, negative = inhibition": "inconclusive: -49.9%"},
      {"smiles": "COc1ccc(-c2ccccc2[C@H]2[C@@H]3C=CC[C@@H](C)[C@@H]3C(=O)N2Cc2ccccc2)cc1", "max response, negative = inhibition": "inconclusive: -30.3%"},
      {"smiles": "Cc1ccc(-c2nc3ncccc3o2)cc1NC(=O)COc1ccccc1", "max response, negative = inhibition": "inconclusive: -31.6%"},
      {"smiles": "CCCCCCC(=O)N(O)C1CC(=O)N(c2ccc(F)cc2)C1=O", "note": "(configuration not stated)", "max response, negative = inhibition": "inconclusive: -37.3%"},
      {"smiles": "COc1ccc(NC(=O)c2cc(C3CCCCN3C(=O)OCCF)on2)c(C)c1", "note": "(configuration not stated)", "max response, negative = inhibition": "inconclusive: -31.6%"},
      {"smiles": "CCc1ccccc1N=C1S/C(=C/c2ccccc2OCC(=O)N2CCOCC2)C(=O)N1C", "max response, negative = inhibition": "inactive: 55.4%"},
      {"smiles": "C#CCOC(=O)CCCC(=O)NCCCCCCCC", "max response, negative = inhibition": "inconclusive: -34.8%"},
      {"smiles": "Cc1cccc(C)c1NS(=O)(=O)c1ccc(NC(=O)c2ccc(Cl)c([N+](=O)[O-])c2)cc1", "max response, negative = inhibition": "active: -78.1%"},
      {"smiles": "CCN1CCN(c2cc(N3CCc4ccccc4C3)c(F)cc2[N+](=O)[O-])CC1", "max response, negative = inhibition": "active: -78.7%"},
      {"smiles": "O=C(CCC(=O)c1cccs1)NCc1ccccc1", "max response, negative = inhibition": "inconclusive: -37.4%"},
      {"smiles": "Cc1c(N)cccc1[N+](=O)[O-]", "max response, negative = inhibition": "inactive: 2.97%"},
      {"smiles": "Cc1ccc(-c2cc(-c3ccccc3)c(C#N)c(Br)n2)cc1", "max response, negative = inhibition": "inactive: 8.57%"},
      {"smiles": "CCOc1cccc2sc(N(CCN(C)C)C(=O)/C=C/c3cccs3)nc12", "max response, negative = inhibition": "inconclusive: -40.8%"},
      {"smiles": "COc1cccc(C(CC(=O)Nc2cccc3ccccc23)NC(=O)c2ccccc2)c1", "note": "(configuration not stated)", "max response, negative = inhibition": "inconclusive: -44.3%"},
      {"smiles": "O=S(=O)(NC1CC1)c1ccc(S(=O)(=O)N2CCN3CCCC3C2)cc1", "note": "(configuration not stated)", "max response, negative = inhibition": "inconclusive: -35.2%"},
      {"smiles": "Cc1cccc(C2=NN(c3ccccc3)[C@@H](C(=O)N3CCOC3=O)[C@@H]2c2ccc(Cl)cc2)c1", "max response, negative = inhibition": "inconclusive: -33.1%"},
      {"smiles": "Cc1ccc(/C=N/n2c(-c3cccnc3)n[nH]c2=S)o1", "max response, negative = inhibition": "inconclusive: -33%"},
      {"smiles": "NC(=O)CC(NC(=O)c1ccccc1)c1ccc(N2CCC(Cc3ccccc3)CC2)c([N+](=O)[O-])c1", "note": "(configuration not stated)", "max response, negative = inhibition": "inactive: -1.87%"},
      {"smiles": "CCn1c(COc2cccc(C)c2)nnc1SCC(=O)CC(=O)Nc1ccccc1OC", "max response, negative = inhibition": "inconclusive: -42.1%"},
      {"smiles": "N#Cc1c(NC(=O)CCN2C(=O)c3ccccc3C2=O)oc(-c2ccccc2)c1-c1ccccc1", "max response, negative = inhibition": "active: -85.3%"},
      {"smiles": "CS(=O)(=O)c1ccc(Sc2nc3ccccc3[nH]2)c([N+](=O)[O-])c1", "max response, negative = inhibition": "inconclusive: -38.6%"},
      {"smiles": "COCCn1nnnc1SCC(=O)N1CCCCC1", "max response, negative = inhibition": "inactive: 2.98%"},
      {"smiles": "Cc1ccccc1CN1CCN(S(=O)(=O)c2ccc(F)cc2)CC1", "max response, negative = inhibition": "active: -77.8%"},
      {"smiles": "COCCNC(=O)c1cnn2c1NC(c1ccco1)CC2C(F)(F)F", "note": "(configuration not stated)", "max response, negative = inhibition": "inconclusive: -38.2%"},
      {"smiles": "NS(=O)(=O)c1ccc(NC(=S)NC(=O)c2ccco2)cc1", "max response, negative = inhibition": "inconclusive: -30.4%"},
      {"smiles": "CCc1ccc(CN(C)CCc2ccccn2)cc1", "max response, negative = inhibition": "inconclusive: -41.4%"},
      {"smiles": "COCCn1c(Cc2ccccc2)nnc1SC(C)C(=O)NC1CC1", "note": "(configuration not stated)", "max response, negative = inhibition": "inactive: 6.39%"},
      {"smiles": "Cc1nc2scc(-c3cccs3)c2c(=O)o1", "max response, negative = inhibition": "inconclusive: -44.1%"},
      {"smiles": "CCCN(CCC)CCOc1cc(C)ccc1C(C)C", "max response, negative = inhibition": "inconclusive: -38.7%"},
      {"smiles": "Cc1ccc(NC(=O)C2(C)CCCN2C)cc1C", "note": "(configuration not stated)", "max response, negative = inhibition": "inactive: -13.6%"},
      {"smiles": "C=CCn1c(Cc2cccs2)nnc1SCC(=O)c1cccc(Br)c1", "max response, negative = inhibition": "inactive: -19.3%"},
      {"smiles": "Cc1nc(N)sc1-c1csc(Nc2cc(N(C)C)ccc2Cl)n1", "max response, negative = inhibition": "inactive: -25.3%"},
      {"smiles": "CCN1CCN(C(=S)c2ccc(Cl)c(Cl)c2)CC1", "max response, negative = inhibition": "active: -51.1%"},
      {"smiles": "O=C(Cc1ccccc1)NCCC1=CCCCC1", "max response, negative = inhibition": "inactive: -7.15%"},
      {"smiles": "Oc1c(CN2CCCCC2)cc(Br)c2cccnc12", "max response, negative = inhibition": "active: -74.4%"},
      {"smiles": "O=C(NCC1CCCO1)C1CCN(S(=O)(=O)Cc2ccccc2)CC1", "note": "(configuration not stated)", "max response, negative = inhibition": "inconclusive: -45.2%"},
      {"smiles": "COc1ccc(CN(C(=O)c2ccco2)C2CCS(=O)(=O)C2)cc1", "note": "(configuration not stated)", "max response, negative = inhibition": "inactive: 3.82%"},
      {"smiles": "O=C(/C=C/c1ccccc1)c1ccc2c(c1)OCO2", "max response, negative = inhibition": "inactive: 0%"},
      {"smiles": "CC(Cc1ccccn1)NC(=O)c1ccc(OC2CCN(CCc3ccccc3)CC2)cc1", "note": "(configuration not stated)", "max response, negative = inhibition": "active: -66.2%"},
      {"smiles": "CCN(CC)S(=O)(=O)c1cccc(C(=O)N[C@H](C(=O)NCc2ccccc2F)C(C)C)c1", "max response, negative = inhibition": "inconclusive: -30.7%"},
      {"smiles": "OCCN(Cc1ccccc1)CC(O)COc1ccc2c(c1)OCO2", "note": "(configuration not stated)", "max response, negative = inhibition": "inactive: 14.3%"},
      {"smiles": "O=C(Nc1ccc2c(c1)OCCO2)C1C(=O)Nc2ccccc2C(=O)N1C1CCCCC1", "note": "(configuration not stated)", "max response, negative = inhibition": "inactive: 14.8%"},
      {"smiles": "COc1ccccc1NC(=O)c1cnc(SCC(=O)NCC2CCCO2)n(C)c1=O", "note": "(configuration not stated)", "max response, negative = inhibition": "inconclusive: -46.9%"},
      {"smiles": "COc1cc(CNCc2ccccc2)c(Br)cc1OC1CCCC1", "max response, negative = inhibition": "active: -62.2%"},
      {"smiles": "O=C(O)C(Cc1cn[nH]n1)=NO", "max response, negative = inhibition": "inconclusive: -38.4%"},
      {"smiles": "CCCCCCC1CC(CC(=O)Nc2ccc([N+](=O)[O-])cc2)C(=O)O1", "note": "(configuration not stated)", "max response, negative = inhibition": "inconclusive: -49.5%"},
      {"smiles": "CCSC1=NC2(CCCCC2)Nc2sc3c(c21)CCCC3", "max response, negative = inhibition": "active: -60.8%"}
    ]}
  ]
}
